PubChem BioAssay AID1487 (National Center for Advancing Translational Sciences (NCATS), 2009)
Where “and” joins values, the source holds several entries; their conditions need not be identical. Identical values can stand only once. The list shows a part of the results. These are further read-outs of the screen, such as a control signal, another cell line or another target. No call is given for them. Compounds called inactive in the main read-out are mostly missing here. Words in brackets tell the shape of the fitted curve; partial curves, single points and poor fits give uncertain potencies.

Experiment: qHTS Assay for Modulators of Lamin A Splicing
Conditions: HeLa LMNA splicing GFP/RFP minigene ratio, 48 h
Method in brief: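 S3 HeLa stable clones carrying a lamin A-EGFP splicing minigene plus DsRed2 were seeded at 600 cells/well in Opti-MEM with 2% FBS, pin-dosed and incubated 48 h at 37°C. Acumen cytometry (488 nm) gave the GFP/RFP total-intensity ratio.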

[1] = measured here: GFP splicing reporter channel
[2] = measured here: RFP viability control channel

Structure (SMILES)	AC50 [1]	AC50 [2]
CCN1/C(=C/C(C)=O)Sc2ccc(OC)cc21	2.51 µM [rising, full curve, poor fit] and 398 nM [falling, full curve, poor fit]	11.2 µM [falling, partial curve, poor fit] and 794 nM [falling, full curve, poor fit]
CC(=O)Nc1ccccc1C(=O)C(=O)Nc1ccccc1	6.31 µM [rising, single point]	
CCCC(=O)N1CCCC(c2nc(-c3cccc(OC)c3)no2)C1 (stereo unspecified)	0.0794 µM [rising, full curve, poor fit]	
CCOc1ccc(S(=O)(=O)Nc2ccc(Cl)cn2)c(C)c1C		31.6 µM [rising, single point]
Cc1c(Cl)cccc1NC(=O)Nc1cc(C(C)(C)C)nn1C	4.47 µM [falling, partial curve, poor fit]	0.00891 µM [falling, full curve, poor fit]
O=C1C(=O)N(c2cccc(Cl)c2)C(c2ccccc2[N+](=O)[O-])/C1=C(\O)c1ccccc1 (stereo unspecified)		12.6 µM [falling, single point]
Cc1ccc(S(=O)(=O)NC(N)=NCCc2ccc(Cl)cc2)cc1		11.2 µM [rising, partial curve]
CCOc1ccc(S(=O)(=O)N(C)c2ccc(OCC(=O)Nc3nc(-c4cc(OC)ccc4OC)cs3)cc2)cc1		6.31 µM [rising, single point]
CCSc1ccc2c(c1)N(CCCN1CCN(C)CC1)c1ccccc1S2	0.447 µM [rising, full curve, poor fit]	0.0794 µM [rising, full curve, poor fit]
CC(C)c1ccc(NC(=O)Cc2cn(C)c3ccccc23)cc1		0.794 µM [falling, full curve, poor fit]
c1ccc(-c2ccc(OCCCn3cncn3)cc2)cc1		11.2 µM [rising, single point]
COc1ccc(/C=C(/NC(=O)c2ccccc2)c2nc3ccc(Cl)cc3[nH]2)cc1OC	7.08 µM [rising, partial curve, poor fit]	35.5 µM [rising, partial curve]
Cc1cccc(Oc2sc(C(=O)c3ccccc3)c(N)c2C#N)c1C	31.6 µM [falling, single point]	25.1 µM [falling, single point]
O=C(N/N=C/c1ccsc1)c1cc(-c2cccs2)nc2ccccc12		7.08 µM [rising, partial curve]
COc1ccc(NS(=O)(=O)c2ccc(OCC(=O)N3CCOCC3)cc2)cc1		22.4 µM [rising, single point]
CC(C)CNC(=S)NC(=O)c1ccc(Cl)cc1		31.6 µM [rising, single point]
CC(C)(C)c1cc(C(=O)NCc2ccccc2)ccn1	3.98 µM [rising, partial curve, poor fit]	10 µM [rising, partial curve]
COc1ccc(/C=C2\SC(=S)N(N3C(=O)CCC3=O)C2=O)cc1O		5.62 µM [falling, partial curve, poor fit]

Structure (SMILES)	AC50 [1]	AC50 [2]
CCOC(=O)c1cc(-c2cc(OC)c(OC)c(OC)c2)nc2c1c(=O)[nH]c(=O)n2Cc1ccccc1	3.16 µM [falling, partial curve]	
Cc1c(O)cccc1C(=O)N[C@@H](CSc1ccccc1)[C@H](O)CN1C[C@H]2CCCC[C@H]2C[C@H]1C(=O)NC(C)(C)C	0.00355 µM [falling, full curve, poor fit]	
CCOC(=O)c1c(/N=C/N(C)C)sc(/C=N/Nc2ccccc2)c1-c1ccccc1	7.08 µM [rising, single point]	
Cc1ccc(SC(C)C(=O)Nc2ccccc2-c2ccccc2)cc1 (stereo unspecified)	35.5 µM [rising, single point]	35.5 µM [rising, single point]
NS(=O)(=O)c1cccnc1Nc1cccc(Cl)c1Cl	35.5 µM [rising, single point]	35.5 µM [rising, single point]
Cc1ccc(OCc2nc(C#N)c(N3CCCCC3)o2)cc1	0.708 µM [falling, full curve, poor fit]	
O=c1cc(-c2ccccc2[N+](=O)[O-])oc2ccccc12		35.5 µM [falling, single point]
COc1cccc(C2C=C(c3ccc(Br)s3)Nc3ncnn32)c1OC (stereo unspecified)	0.794 µM [falling, single point]	
N/C(=N\OC(=O)/C=C/c1ccccc1)c1ccc(Br)cc1	35.5 µM [rising, partial curve, poor fit]	
COc1cc(CNC(C)C)c(Br)cc1OC1CCCC1	12.6 µM [falling, partial curve]	11.2 µM [falling, partial curve]
CC(=O)c1ccc(OCc2cc(=O)n3ccsc3n2)cc1	3.55 µM [falling, full curve, poor fit]	5.62 µM [falling, full curve, poor fit]
O=C(Nc1ccc(Cl)cc1)c1cc(S(=O)(=O)NC2CCCCCC2)ccc1F	20 µM [falling, partial curve, poor fit]	14.1 µM [falling, partial curve, poor fit]
CSc1ccccc1C(=O)NCc1cccnc1		0.0631 µM [falling, full curve, poor fit]
O=C(Nc1ccccc1)c1ccc(-c2ccccc2Cl)o1		17.8 µM [rising, partial curve]
O=C(COC(=O)c1ccccc1C(=O)c1ccccc1)NCCc1ccc(Cl)cc1Cl		12.6 µM [rising, single point]
Cc1cccc(N(C(=O)Cn2nnc(-c3ccc(F)cc3)n2)C(C(=O)NC(C)(C)C)c2ccncc2)c1 (stereo unspecified)	0.00447 µM [rising, full curve, poor fit]	
COCCCNCC#CCOc1ccc(OC)cc1		0.141 µM [rising, full curve, poor fit]
